Earlier results in patent publication US20150174123A1, “OXABICYC[…] OXABICYC[…] THE TREATMENT OF REPERFUSION INJURY” (priority 2012, published 2015).
At least one compound was matched to its structure with a doubt left.

Test system: PP2A
Conditions: rapid injection; cited from earlier work

Compound: O=C1O[C@H]([C@@H](O)CO)C(O)=C1O [ascorbate]
- Protection against sepsis effects including PP2A activation: protected against these effects
